At least one compound was matched to its structure with a doubt left.
Biological target: T1, FFAR (R10; GPR40) (Homo sapiens, UniProt O14842)
T1 construct: expressed in transfected cells; host or cells: HFF11 reporter cells (HeLa-based), line HFF11.pR10
Experiment: HFF11 reporter cell assay, HFF11.pR10 cells expressing FFAR
Type: cell-based
Conditions: result in words
Description: Construction of the HFF11 reporter cell lines (successor of the previously described HeLa based cell line, HF1) expressing the orphan GPCRs studied was performed as earlier reported. (Co-pending U.S. application Ser. No. 09/946,334 filed Sep. 21, 2001; Kotarsky et al. 2001.) They contain the reporter plasmid, pcFUS3, where the original promoter region has been extended by 6 NFkB and 6 STAT elements. (Co-pending U.S. application Ser. No. 09/946,334 filed Sep. 21, 2001; Kotarsky et al., unpublished.) On day 1, HFF11 reporter cells, with or without the test […] receptor, were seeded into 96-well plates at 20,000 cells per well in 100 μl growth medium. On day 3, the medium was removed and replaced by 90 μl serum-free medium. Substances (e.g., compounds) and controls were added in the appropriate concentrations 24 h later. Stimulations were performed at 37 degrees C. for 7 h. Cell lysates were assayed in a BMG Lumistar Galaxy luminometer as previously described. (Kotarsky et al., 2001.) Statistical analysis of the drug concentration-response data was carried out with the GraphPad PRISM software package. In the initial screening, reporter cell lines, with or without recombinant test receptors, were challenged with FFAs, such as AA and LA, at […]. Ten cell lines expressing ten “orphan receptors” (one receptor per cell line) were screened. The expressed receptors were labeled R1-R10.

The chains behind the UniProt entries cited, without tags or fusion partners.
UniProt O14842, whole entry: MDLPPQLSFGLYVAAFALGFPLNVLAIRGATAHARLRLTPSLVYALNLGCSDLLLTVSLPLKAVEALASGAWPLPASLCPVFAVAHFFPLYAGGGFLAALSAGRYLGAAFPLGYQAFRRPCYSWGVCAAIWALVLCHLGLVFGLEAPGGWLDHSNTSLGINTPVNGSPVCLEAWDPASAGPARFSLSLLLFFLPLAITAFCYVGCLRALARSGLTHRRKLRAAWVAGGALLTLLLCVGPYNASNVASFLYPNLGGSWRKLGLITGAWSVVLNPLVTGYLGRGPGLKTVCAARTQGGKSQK

CN(CCOc1ccc(CC2SC(=O)NC2=O)cc1)c1ccccn1 (stereo not shown) [Rosiglitazone]
activation of FFAR: strongly activated FFAR

From US7335481B2, “Methods of identifying compounds that affect a fatty acid cell-surface receptor” (priority 2002, dated 2008)
